Experimental data published in publication PMC6937325 (Scientific Reports, 2019).

Assay: peptide synthesis
Conditions: whole synthesis

Substance | isolated yield [%] | final HPLC purity (220 nm) [%] | final HPLC purity (280 nm) [%]
SFLLR-CONH2 | 39 | 98.41 | –
SFLLRN-CONH2 | 21 | 100 | –
YPFF-CONH2 | 29 | 100 | –
YPWF-CONH2 | 26 | – | 97.5
